7 substances from publication PMC9274230 can be followed below.

Protein sequences, listed by entry. Tags and fused reporters are not part of them. Lines headed by an entry give the natural chain unless they say otherwise; changes in a name come on top.
UniProt O95863: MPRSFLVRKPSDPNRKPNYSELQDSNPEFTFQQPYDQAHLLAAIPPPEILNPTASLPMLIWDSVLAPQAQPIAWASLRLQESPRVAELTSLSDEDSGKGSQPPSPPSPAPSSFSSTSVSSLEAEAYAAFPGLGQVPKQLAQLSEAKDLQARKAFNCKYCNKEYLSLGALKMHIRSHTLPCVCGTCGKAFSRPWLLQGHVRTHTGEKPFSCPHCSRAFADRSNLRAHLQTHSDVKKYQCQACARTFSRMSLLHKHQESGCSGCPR
UniProt O43707: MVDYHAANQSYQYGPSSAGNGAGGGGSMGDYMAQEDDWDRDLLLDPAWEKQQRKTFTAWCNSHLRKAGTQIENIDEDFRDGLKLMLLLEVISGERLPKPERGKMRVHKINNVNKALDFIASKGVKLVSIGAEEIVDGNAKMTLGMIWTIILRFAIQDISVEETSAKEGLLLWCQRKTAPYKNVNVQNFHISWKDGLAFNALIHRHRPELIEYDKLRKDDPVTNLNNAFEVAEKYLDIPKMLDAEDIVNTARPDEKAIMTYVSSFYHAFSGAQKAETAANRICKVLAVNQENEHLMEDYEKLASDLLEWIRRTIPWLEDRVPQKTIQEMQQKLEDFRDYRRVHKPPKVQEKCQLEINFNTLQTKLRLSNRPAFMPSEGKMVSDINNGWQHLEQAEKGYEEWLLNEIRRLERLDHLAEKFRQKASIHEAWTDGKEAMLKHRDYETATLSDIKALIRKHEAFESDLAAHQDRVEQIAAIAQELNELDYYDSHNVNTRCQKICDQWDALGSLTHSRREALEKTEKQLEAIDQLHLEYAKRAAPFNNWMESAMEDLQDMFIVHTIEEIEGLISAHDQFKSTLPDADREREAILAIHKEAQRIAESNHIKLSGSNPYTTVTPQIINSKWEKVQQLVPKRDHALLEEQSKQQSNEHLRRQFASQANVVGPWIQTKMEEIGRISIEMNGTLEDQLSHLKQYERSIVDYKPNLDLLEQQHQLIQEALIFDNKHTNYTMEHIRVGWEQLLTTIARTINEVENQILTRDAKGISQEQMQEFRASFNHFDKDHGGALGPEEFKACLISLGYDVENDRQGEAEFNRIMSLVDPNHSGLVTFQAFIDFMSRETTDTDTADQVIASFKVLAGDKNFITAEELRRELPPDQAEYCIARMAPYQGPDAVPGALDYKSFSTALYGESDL
UniProt Q99729: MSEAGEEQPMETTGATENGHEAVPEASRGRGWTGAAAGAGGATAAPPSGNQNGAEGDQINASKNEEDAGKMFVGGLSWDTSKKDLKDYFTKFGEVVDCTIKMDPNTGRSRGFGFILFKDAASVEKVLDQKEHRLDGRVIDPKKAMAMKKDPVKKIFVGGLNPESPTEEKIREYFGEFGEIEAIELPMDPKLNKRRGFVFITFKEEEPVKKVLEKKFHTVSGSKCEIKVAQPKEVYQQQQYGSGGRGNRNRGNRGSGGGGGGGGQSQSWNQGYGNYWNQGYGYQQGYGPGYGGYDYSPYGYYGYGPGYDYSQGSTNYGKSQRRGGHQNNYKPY
UniProt P35580: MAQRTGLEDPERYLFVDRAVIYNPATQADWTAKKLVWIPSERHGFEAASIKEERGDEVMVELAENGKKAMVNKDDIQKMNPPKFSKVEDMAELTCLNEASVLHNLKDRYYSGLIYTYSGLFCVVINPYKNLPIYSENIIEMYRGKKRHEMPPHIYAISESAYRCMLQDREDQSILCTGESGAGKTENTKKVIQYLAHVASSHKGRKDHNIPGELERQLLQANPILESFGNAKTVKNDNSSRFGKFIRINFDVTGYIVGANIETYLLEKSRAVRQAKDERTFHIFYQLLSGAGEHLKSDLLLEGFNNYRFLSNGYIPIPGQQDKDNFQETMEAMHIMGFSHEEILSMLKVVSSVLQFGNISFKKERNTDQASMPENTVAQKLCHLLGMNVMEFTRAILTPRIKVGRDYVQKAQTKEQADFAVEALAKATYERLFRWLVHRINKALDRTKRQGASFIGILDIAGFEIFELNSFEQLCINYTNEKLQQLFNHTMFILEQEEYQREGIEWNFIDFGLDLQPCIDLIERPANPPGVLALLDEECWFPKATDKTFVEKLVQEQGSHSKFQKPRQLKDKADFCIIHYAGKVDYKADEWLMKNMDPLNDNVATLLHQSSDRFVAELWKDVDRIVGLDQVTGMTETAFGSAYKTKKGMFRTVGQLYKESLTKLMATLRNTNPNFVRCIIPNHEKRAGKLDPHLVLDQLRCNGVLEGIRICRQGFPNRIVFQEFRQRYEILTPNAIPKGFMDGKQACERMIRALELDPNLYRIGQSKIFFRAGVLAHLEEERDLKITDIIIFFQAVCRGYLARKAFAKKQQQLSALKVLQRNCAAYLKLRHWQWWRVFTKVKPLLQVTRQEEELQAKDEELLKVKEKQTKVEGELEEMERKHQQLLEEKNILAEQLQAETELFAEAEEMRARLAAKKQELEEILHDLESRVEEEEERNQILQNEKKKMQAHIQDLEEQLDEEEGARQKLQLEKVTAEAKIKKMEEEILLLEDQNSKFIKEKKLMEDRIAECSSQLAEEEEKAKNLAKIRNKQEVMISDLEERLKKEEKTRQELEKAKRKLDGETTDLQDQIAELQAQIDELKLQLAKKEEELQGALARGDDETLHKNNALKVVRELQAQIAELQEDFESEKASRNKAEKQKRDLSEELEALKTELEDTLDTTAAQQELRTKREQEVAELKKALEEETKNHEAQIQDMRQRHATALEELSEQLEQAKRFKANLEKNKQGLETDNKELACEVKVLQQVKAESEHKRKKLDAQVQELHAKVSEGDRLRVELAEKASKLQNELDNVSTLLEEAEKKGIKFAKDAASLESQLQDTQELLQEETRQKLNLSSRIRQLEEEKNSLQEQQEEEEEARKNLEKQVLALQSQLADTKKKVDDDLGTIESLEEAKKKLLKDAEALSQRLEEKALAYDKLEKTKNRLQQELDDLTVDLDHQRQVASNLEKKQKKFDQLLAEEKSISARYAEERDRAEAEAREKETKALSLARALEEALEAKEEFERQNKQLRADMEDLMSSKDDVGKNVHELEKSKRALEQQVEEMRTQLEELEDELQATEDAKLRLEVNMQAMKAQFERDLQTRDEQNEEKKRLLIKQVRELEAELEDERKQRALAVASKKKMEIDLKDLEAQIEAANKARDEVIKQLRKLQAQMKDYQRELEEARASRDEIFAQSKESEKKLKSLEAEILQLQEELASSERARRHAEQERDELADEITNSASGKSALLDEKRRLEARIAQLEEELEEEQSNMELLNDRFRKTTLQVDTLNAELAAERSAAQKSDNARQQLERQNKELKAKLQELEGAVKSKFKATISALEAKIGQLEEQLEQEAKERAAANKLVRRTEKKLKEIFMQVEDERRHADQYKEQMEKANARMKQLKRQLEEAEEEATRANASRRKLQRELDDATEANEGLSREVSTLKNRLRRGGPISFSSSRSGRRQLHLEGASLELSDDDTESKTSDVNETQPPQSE
UniProt P02042: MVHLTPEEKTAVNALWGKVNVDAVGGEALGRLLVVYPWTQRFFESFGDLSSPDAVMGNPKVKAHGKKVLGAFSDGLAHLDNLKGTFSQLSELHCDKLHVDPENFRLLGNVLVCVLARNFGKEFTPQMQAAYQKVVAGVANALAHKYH
UniProt O14983: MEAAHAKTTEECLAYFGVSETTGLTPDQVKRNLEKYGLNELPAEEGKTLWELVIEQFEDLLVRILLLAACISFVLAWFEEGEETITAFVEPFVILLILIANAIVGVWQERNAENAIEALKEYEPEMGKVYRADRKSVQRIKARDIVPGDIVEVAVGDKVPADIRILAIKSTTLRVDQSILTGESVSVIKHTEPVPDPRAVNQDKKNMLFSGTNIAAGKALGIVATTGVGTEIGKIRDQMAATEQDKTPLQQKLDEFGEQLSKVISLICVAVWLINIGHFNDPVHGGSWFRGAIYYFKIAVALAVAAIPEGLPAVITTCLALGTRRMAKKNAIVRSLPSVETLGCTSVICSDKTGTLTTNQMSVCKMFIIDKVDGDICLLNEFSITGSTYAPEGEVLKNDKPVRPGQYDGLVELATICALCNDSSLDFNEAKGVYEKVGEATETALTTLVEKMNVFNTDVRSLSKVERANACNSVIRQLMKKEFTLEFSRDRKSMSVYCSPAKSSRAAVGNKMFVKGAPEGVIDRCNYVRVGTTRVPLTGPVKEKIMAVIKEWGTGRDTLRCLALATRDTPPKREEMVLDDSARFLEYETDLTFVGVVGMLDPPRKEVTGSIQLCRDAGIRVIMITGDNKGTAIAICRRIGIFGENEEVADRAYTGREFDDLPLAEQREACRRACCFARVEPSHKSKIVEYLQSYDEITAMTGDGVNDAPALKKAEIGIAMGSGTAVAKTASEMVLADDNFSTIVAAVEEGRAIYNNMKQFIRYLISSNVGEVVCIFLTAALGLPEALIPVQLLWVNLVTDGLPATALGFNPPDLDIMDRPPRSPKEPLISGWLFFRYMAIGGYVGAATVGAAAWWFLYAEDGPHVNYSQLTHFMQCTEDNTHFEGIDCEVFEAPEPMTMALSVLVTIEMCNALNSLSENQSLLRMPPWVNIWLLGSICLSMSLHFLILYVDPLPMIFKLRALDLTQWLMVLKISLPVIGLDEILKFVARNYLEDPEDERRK
UniProt P07477: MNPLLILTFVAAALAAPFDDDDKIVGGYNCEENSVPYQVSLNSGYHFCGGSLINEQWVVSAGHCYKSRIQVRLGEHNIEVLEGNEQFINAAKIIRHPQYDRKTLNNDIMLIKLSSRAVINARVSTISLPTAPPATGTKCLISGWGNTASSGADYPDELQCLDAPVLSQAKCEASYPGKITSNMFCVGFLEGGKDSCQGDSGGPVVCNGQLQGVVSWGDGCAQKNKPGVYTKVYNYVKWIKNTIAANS
UniProt P67809: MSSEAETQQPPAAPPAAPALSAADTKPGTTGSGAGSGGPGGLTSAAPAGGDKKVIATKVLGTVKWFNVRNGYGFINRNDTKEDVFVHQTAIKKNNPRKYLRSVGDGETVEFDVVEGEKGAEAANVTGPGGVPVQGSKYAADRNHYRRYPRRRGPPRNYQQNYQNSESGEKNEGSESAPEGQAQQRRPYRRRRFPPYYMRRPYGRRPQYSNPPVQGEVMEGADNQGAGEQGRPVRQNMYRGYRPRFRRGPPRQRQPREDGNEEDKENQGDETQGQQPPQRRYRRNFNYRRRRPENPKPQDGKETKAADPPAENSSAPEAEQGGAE

These are yes or no findings as the source states them, for the method shown. In cells and extracts the contact can be indirect. These calls come from enrichment with a bait or labelling near it, and not all partners need be listed.

The test addresses Snail (human (endogenous in primary ectopic endometrial cells)) (UniProt O95863). As to the kind of experiment: affinity purification with mass spectrometry; endogenous snail precipitated with snail antibody (3879, Cell Signaling Technology) from lysate of primary ectopic endometrial cells (IP-MS Cell Lysis Buffer, overnight at 4°C; Protein A/G magnetic beads, 1 hour at room temperature); eluate digested with trypsin, LC-MS (TripleTOF 5600), proteins with unused ≥ 1.3; control group and group treated with 0.1 μm sunitinib for 24 hours.

Turning to “Alpha-actinin-4 (from UniProt O43707 1-911)”, the binding entry was “binds”. As for “Heterogeneous nuclear ribonucleoprotein A/B (from UniProt Q99729 1-332)”, the binding result was “binds”. For Myosin-10 (from UniProt P35580 1-1976) the value was “binds”; for “Hemoglobin subunit delta (from UniProt P02042 1-147)”, “binds”; for “Sarcoplasmic/endoplasmic reticulum calcium ATPase 1 (from UniProt O14983 1-1001)”, “binds”. Turning to Trypsin-1 (from UniProt P07477), the binding result is on record as “binds”. The value for “Nuclease-sensitive element-binding protein 1 (from UniProt P67809 1-324)” was “binds”.
